Data taken from PMC5333077.
These are yes or no findings as the source states them, for the method shown. In cells and extracts the contact can be indirect. Some binding calls cover weakened binding; strength is not graded here.

Amino acid sequences for entries named in this document (tags omitted).
UniProt Q00987: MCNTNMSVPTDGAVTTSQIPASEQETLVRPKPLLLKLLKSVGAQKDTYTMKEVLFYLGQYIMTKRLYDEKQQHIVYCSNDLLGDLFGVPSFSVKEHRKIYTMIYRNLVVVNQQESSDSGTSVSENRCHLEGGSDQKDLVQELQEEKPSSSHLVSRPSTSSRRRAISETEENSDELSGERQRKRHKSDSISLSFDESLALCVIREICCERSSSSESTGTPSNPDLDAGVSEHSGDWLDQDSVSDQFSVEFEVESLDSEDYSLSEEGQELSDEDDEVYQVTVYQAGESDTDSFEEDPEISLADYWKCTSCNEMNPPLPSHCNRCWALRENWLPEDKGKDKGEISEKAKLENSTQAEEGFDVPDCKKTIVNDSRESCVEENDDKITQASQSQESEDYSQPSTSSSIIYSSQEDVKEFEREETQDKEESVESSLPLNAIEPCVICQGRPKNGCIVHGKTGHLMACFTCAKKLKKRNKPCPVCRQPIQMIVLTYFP
UniProt P03427: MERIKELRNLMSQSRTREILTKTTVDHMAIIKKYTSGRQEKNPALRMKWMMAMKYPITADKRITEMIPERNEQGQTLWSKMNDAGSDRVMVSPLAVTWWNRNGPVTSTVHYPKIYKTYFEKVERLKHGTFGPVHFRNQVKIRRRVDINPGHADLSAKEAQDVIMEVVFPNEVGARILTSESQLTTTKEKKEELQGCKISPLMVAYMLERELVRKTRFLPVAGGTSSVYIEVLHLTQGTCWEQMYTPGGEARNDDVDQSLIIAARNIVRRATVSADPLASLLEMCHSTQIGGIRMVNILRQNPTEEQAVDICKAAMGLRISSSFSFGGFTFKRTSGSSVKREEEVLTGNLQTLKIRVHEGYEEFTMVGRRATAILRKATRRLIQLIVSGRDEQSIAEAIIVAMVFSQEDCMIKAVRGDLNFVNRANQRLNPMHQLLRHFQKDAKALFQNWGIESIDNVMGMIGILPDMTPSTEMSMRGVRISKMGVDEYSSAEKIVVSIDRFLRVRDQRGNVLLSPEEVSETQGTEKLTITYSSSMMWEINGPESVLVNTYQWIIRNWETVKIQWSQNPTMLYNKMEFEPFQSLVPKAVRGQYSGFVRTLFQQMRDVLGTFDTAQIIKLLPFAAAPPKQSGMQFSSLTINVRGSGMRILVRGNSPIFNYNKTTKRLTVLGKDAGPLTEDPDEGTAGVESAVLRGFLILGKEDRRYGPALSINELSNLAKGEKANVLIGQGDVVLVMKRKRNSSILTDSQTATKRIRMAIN

Target: Myc-HDM2 (UniProt Q00987)
Test: co-IP

FLAG-PB2 (from UniProt P03427 1-759)
binding: binds
